Assay results: the supplement of paper PMC3545927
The list shows a part of the results, in another mix than the full data.

The chains behind the UniProt entries cited, without tags or fusion partners.
furin, P09958, UniProt P09958, whole entry: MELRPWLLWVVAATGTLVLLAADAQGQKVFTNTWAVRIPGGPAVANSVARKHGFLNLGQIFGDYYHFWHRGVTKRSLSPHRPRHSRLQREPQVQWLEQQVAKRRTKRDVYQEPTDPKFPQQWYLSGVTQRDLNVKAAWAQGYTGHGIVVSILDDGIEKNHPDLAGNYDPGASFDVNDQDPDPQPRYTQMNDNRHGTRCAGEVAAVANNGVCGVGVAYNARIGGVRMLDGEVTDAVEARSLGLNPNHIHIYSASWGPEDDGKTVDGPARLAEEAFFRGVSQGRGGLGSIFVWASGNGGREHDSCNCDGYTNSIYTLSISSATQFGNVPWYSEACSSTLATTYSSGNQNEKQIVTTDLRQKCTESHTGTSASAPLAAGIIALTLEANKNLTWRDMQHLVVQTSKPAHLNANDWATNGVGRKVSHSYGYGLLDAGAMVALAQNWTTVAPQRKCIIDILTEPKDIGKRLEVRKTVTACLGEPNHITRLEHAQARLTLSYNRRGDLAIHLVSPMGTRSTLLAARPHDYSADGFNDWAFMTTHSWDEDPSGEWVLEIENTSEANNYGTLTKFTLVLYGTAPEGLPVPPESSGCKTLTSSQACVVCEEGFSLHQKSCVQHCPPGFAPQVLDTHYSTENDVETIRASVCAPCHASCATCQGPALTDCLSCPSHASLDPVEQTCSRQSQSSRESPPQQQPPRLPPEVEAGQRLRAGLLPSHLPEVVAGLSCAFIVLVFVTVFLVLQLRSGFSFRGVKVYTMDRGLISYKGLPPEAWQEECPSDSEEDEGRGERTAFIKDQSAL

Molecular target: furin, P09958
Test: furin cleavage Z-score vs untreated control; higher = more cleavage, active = 3.5 or more, inactive = 1 or less, 8 variable residues between constant flanks
Method: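 Multiplexed peptide-cDNA fusion cleavage assay. 8-mer variable peptides flanked by constant Cys-Ala (N-term) and Ala-Gly-Asn-Ala-Ser-Ala-Ser-Ala (C-term) and conjugated to a cDNA oligonucleotide were bead-immobilised via the N-terminus. They were treated with purified furin at a 1:10 enzyme:substrate ratio in 50 mM HEPES pH 7.5, 1 mM CaCl2, 100 mM NaCl for 7.5, 15 or 30 min. Released cDNA was counted by next-generation sequencing, and log counts versus no-furin controls were lowess-adjusted and converted to robust Z-scores.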

Sequence	furin cleavage Z-score (7.5 min)	furin cleavage Z-score (15 min)	furin cleavage Z-score (30 min)
CAVEEACSLTAGNASASA [HC1413]	1.3	2.43	2.83
CAMIECSQHLAGNASASA [HC1684]	1.09	1.22	1.23
CATLGRHRRIAGNASASA [FS-305]	–	active: 4.75	active: 4.61
CAAPNYTFALAGNASASA [HC1198]	inactive: -1.92	inactive: -0.299	inactive: -0.368
CAGGRRRKKSAGNASASA [FS-654]	1.86	2.14	2.63
CAMQKRSVTAAGNASASA [FS-2632]	1.25	2.99	3.47
CALVVTSTWVAGNASASA [HC2145]	inactive: -0.711	inactive: -0.969	inactive: -0.561
CAVAACLRKLAGNASASA [HC1613]	2.6	1.36	1.97
CARPRRWKLQAGNASASA [FS-3201]	1.28	1.04	1.05
CASRDRFRRSAGNASASA [FS-1282]	active: 13	active: 12.2	active: 9.49
CALFNWAVRTAGNASASA [HC1633]	2.37	1.33	1.17
CAQTRGLLGCAGNASASA [HC678]	inactive: 0.117	inactive: -0.157	inactive: -0.705
CAHPKRPSRQAGNASASA [FS-537]	2.45	2.47	2.01
CALRARKNRSAGNASASA [FS-942]	active: 8.1	active: 8.12	active: 6.93
CARQKRLSHVAGNASASA [FS-2226]	1.31	2.13	2.36
CARLARRAHRAGNASASA [FS-1736]	1.23	1.5	2.96
CARMRRGAGGAGNASASA [FS-2724]	2.04	2.43	2.69
CARPRRPRGAAGNASASA [FS-2166]	2.21	1.1	1.48
CALRSRWGRFAGNASASA [FS-1369]	2.53	1.38	1.71

Sequence	furin cleavage Z-score (7.5 min)	furin cleavage Z-score (15 min)	furin cleavage Z-score (30 min)
CAAKDVRCHAAGNASASA [HC1423]	2.63	1.91	1.42
CACWPRHRRVAGNASASA [FS-1314]	inactive: 0.553	1.38	2.27
CAQWIRVKRTAGNASASA [FS-372]	active: 10	active: 8.77	active: 8.64
CALEGRRKRAAGNASASA [FS-938]	active: 9.45	active: 10.2	active: 8.2
CAMEECQQHLAGNASASA [HC39]	1.54	inactive: 0.787	2.55
CAEHFRKKRSAGNASASA [FS-1450]	active: 13.1	active: 12	active: 10.4
CARVFRDAGAAGNASASA [FS-2617]	1.53	1.03	1.31
CAGCPERLASAGNASASA [HC386]	1.74	inactive: 0.605	inactive: -0.259
CAEVVTSTWWAGNASASA [HC2248]	2.34	1.15	1.81
CATTPCSGLWAGNASASA [HC1905]	inactive: 0.96	1.01	inactive: -0.0137
CARHKRMCQGAGNASASA [FS-2335]	1.23	inactive: 0.787	3.08
CASTPCSAGLAGNASASA [HC2556]	inactive: -0.924	inactive: -0.11	inactive: -0.471
CASQARLGRIAGNASASA [FS-301]	inactive: -1.06	inactive: -0.739	inactive: -0.311
CAENARKIRTAGNASASA [FS-233]	3.32	2.61	2.12
CATTPPSGSWAGNASASA [HC60]	inactive: -1.04	inactive: -0.299	inactive: -0.554
CATRSRNSRFAGNASASA [FS-730]	2.17	3.15	3.21
CARKRRAKREAGNASASA [FS-1650]	active: 13	active: 13.6	active: 9.6
CAGREVPCHRAGNASASA [HC2436]	1.55	1.03	1.31

A few values from the entries so far.
For furin cleavage Z-score (30 min), CALVVTSTWVAGNASASA [HC2145] shows inactive: -0.561
For furin cleavage Z-score (30 min), CARHKRMCQGAGNASASA [FS-2335] shows 3.08
